Measured values from article PMC5749165.

Sequences of proteins named here, by UniProt entry; tags and fusion partners are left off.
UniProt O94913: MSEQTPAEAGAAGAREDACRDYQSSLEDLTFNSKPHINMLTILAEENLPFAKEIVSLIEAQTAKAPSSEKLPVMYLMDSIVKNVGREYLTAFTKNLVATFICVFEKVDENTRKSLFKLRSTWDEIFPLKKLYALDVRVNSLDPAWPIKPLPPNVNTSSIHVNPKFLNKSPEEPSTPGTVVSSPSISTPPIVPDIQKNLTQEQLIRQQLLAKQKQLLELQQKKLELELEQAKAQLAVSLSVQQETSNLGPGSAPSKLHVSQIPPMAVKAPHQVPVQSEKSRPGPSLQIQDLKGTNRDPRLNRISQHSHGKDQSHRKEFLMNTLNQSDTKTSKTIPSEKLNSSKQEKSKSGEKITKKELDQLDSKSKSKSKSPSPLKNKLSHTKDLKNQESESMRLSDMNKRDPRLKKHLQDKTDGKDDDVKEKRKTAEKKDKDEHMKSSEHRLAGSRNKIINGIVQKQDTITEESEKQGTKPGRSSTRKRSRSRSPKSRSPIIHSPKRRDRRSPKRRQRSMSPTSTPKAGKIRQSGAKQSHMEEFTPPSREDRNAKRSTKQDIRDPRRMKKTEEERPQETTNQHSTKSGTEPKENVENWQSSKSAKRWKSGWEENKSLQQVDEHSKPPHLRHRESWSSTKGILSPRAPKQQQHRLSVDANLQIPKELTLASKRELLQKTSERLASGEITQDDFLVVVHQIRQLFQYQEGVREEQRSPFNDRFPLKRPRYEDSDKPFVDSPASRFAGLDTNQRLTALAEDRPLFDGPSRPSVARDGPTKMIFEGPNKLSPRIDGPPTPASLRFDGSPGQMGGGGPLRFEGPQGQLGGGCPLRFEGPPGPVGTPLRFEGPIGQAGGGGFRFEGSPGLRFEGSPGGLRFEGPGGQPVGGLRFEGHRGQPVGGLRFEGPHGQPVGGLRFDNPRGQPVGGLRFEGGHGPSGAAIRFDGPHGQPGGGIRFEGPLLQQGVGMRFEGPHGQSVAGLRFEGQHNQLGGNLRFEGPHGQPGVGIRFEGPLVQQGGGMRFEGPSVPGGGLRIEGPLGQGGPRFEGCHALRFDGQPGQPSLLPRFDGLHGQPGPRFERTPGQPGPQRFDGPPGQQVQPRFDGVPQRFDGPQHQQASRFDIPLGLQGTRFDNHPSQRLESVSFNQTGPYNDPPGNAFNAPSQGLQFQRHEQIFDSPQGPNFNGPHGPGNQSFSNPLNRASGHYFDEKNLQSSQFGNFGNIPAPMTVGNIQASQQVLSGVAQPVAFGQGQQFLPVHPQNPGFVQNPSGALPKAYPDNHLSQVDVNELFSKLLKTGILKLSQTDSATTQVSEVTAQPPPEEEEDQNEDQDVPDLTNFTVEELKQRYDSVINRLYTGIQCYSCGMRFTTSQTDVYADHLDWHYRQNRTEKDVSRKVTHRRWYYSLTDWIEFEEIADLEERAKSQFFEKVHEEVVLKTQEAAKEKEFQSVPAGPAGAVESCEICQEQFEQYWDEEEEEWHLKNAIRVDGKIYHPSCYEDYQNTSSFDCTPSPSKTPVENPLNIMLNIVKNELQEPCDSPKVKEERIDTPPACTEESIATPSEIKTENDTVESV

Molecular target: PCF11 (termination factor), endogenous (human (endogenous in HeLa)) (UniProt O94913)
Assay: affinity purification with mass spectrometry; PCF11-interacting proteins from HeLa cells analysed by MS

In the case of “WNK1 (with no lysine [K] 1) kinase, endogenous (from UniProt Q9H4A3-1 1-2382) (enzyme)”, the binding is reported as “binds”.

No constants are given. Whether binding was seen depends on the method and setting. Binding seen in cells or lysates may run through a third protein. These calls come from enrichment with a bait or labelling near it, and not all partners need be listed.
